Patent US20150133651, “CslA9 Gluco-mannan Synthase Gene” (published 2015)

How the values were obtained:
[1] = target: T1, AtbZIP1 (At5g49450) (Arabidopsis thaliana) (UniProt Q9FGX2); test: EMSA; conditions: purified recombinant protein; protein details: GST fusion, E. coli Rosetta gami; label: 32P
T1 sequence (limits assumed): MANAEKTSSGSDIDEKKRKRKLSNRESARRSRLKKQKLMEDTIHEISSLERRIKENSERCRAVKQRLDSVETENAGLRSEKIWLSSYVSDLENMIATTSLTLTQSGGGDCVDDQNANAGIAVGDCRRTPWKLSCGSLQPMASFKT

[2] = target: T2, ANAC041 (At2g33480) (Arabidopsis thaliana) (UniProt O22798); test: EMSA; conditions: purified recombinant protein; protein details: GST fusion, E. coli Rosetta gami; label: 32P
T2 sequence (limits assumed): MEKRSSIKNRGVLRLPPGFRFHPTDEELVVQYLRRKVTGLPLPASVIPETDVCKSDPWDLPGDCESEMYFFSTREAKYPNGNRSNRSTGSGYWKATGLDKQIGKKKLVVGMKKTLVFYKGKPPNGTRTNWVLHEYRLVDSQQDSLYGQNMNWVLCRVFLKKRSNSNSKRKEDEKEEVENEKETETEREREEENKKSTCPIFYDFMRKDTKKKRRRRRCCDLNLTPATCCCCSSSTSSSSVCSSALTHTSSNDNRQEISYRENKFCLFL

Sequence	binding result [1]	binding result [2]
AAGCATTTTTTTTAACAATGACATTTTTATTTTTTAAGAAAATTATTTTATCAGAAACTTAAAATAACAATTTGTTTTGTATCTTCGCCTGGACGTCATTAATGTTTGTGTCGTTCAATAATGTTTGGTAGTTATATATAGAAAGAGCAAATTTATGGTTGATTGATGGTGCAAAAAAATTCATTTCTCTATATTCTAGAGAAATAAAATAAAAGAATAATGGAATATTAAATAGAGTCTAAAACAATATACACAAGGACAGAGCCTTTATATATAAAGACATTGATCTCTCTCTGATTT (double strand) [CSLA9 promoter -762 to -463]	binds	
TTCGATTATCCTCATCAGAGATGTTCGCTATCTTGTCAATAGATGAGGACAAACAATATGAGACGATATATTTTCCTCGAGAAATGAACCATTAGAATCACTCTACTTTTGGAATTAACCGGTTATGCAAGTCCATATGATTTGTATAAATACTGATATACATAATGCTCATCTATAATGCATAGTTTTTTCATTCAGCTCTAAAATATTATAAGTAATGTTATTGAGCCTCGATTGATTGATTGACAAAAAAAAAAAATGTTATTGAGCCTTCGATTCTTTTTTTGAGCCTTTAATTGG (double strand) [CSLA9 promoter -1312 to -1013]		binds

Tags and fusion partners may be left off the protein sequences shown.
